Percent effect of library compounds

The chains behind the UniProt entries cited, without tags or fusion partners. Residues count along the entry.
UniProt Q4DA54, 1-478: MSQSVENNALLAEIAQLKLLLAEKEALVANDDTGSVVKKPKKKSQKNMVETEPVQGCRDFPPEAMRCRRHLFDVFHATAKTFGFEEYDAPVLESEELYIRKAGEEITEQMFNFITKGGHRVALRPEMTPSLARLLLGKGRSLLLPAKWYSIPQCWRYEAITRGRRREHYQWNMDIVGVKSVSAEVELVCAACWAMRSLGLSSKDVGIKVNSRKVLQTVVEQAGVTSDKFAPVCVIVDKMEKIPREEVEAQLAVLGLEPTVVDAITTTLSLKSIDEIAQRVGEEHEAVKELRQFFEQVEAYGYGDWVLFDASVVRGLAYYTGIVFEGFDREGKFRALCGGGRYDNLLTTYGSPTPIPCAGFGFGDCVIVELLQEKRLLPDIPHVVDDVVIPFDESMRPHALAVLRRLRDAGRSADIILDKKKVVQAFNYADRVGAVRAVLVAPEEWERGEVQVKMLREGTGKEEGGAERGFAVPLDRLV
UniProt A4I591, 1-473: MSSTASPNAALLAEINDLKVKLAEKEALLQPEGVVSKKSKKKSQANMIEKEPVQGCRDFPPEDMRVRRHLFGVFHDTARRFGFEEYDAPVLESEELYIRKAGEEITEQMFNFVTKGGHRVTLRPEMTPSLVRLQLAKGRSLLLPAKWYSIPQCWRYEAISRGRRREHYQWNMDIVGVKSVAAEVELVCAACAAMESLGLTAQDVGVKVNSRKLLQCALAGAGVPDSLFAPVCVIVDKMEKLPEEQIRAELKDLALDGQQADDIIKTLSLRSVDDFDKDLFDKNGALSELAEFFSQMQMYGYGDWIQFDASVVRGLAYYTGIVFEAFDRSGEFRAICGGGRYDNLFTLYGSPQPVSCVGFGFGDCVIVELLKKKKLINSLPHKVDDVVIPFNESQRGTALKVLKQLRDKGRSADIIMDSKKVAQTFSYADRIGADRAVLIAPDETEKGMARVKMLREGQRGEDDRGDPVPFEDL

Each number is a percent effect as filed. The record does not define 0% and 100%; most values in the screen are far below 50% and negative numbers occur (in some assays of this library far below -100). This is an unselected part of the compounds tested. A dash means the value is not listed here; it may have been measured.

T. brucei: 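Whole-parasite assay of Trypanosoma brucei over 72 hours; the read-out is not stated. Tested at 30 µM. Direction is inferred from retests: higher values go with stronger inhibition. Values scatter widely below zero; nearly all retest evidence comes from the higher of the two concentrations used. About 64,000 compounds were tested under these conditions; 1.5% (about 940) showed 50% or more at least once.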
TcHisRS: 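Enzyme assay of histidyl-tRNA synthetase; the read-out is not stated. Target: Histidine-tRNA ligase, Trypanosoma cruzi CL Brener (UniProt Q4DA54). Concentration: 30 µM. Higher reads as stronger inhibition (inferred: compounds with an IC50 in retests scored well above the rest). Of about 69,000 compounds tested this way, about 31 (0.045%) reached 50% or more in at least one test.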
LiHisRS: 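Enzyme assay of histidyl-tRNA synthetase; the read-out is not stated. Target: Histidine-tRNA ligase, Leishmania infantum (UniProt A4I591). Compounds at 30 µM. Direction is inferred from retests: higher values go with stronger inhibition. The assay is labelled LdHisRS but filed under L. infantum. About 69,000 compounds were tested under these conditions; 0.6% (about 410) showed 50% or more at least once.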

| SMILES | T. brucei | TcHisRS | LiHisRS |
|---|---|---|---|
| `CCC1c2ccsc2CCN1C(=O)NCc1cc(C)on1` (stereo not shown) | 1.081 | 5.572 | 12.04 |
| `CC(C)c1nc2n(n1)CC(NCCc1cccs1)CC2` (stereo not shown) | -6.978 | 3.784 | 11.97 |
| `C=C(C)COc1ccccc1CN1CCCC(C(=O)NCCCO)C1` (stereo not shown) | -11.16 | 5.473 | 6.993 |
| `COc1cccc(-c2noc3c2CN(c2nc(C)ncc2C)CC3)c1` | 22.55 | 9.497 | 15.79 |
| `CNc1nc(CNC(=O)Nc2ccccc2SC)cs1` | -34.83 | 4.943 | 16.8 |
| `CCN1C[C@H]2[C@@H](C1)N(c1ncc(F)cn1)CC[C@H]2OC` | - | -3.226 | 15.79 |
| `COC(=O)CC(c1ccc(OC)c(O)c1)c1oc(C)cc(=O)c1O` (stereo not shown) | -24.51 | 2.41 | 2.564 |
| `COc1ccc2cc(C(=O)N3CCCC(n4ccnc4C)C3)[nH]c2c1` (stereo not shown) | - | 4 | 13.56 |
| `Cc1cccc(CN2CCCC3(CCN(CC4CCCO4)CC3)C2)n1.O=C(O)C(F)(F)F.O=C(O)C(F)(F)F` (stereo not shown) | 1.665 | - | - |
| `Cc1ccc(-n2ncc(C(=O)NC3CC(C)(C)NC(C)(C)C3)c2N)cc1` | -36.07 | 11.36 | 13.86 |
| `[H][C@@]12C[C@@H](c3noc(C)n3)O[C@]1([H])CN(C(=O)c1cc(C)nn1CC)C2` | 7.527 | - | - |
| `Cc1ccc(NC2(C(=O)NC(C)c3ncn[nH]3)CCCC2)cc1` (stereo not shown) | -57.99 | 1.163 | 0 |
| `O=C1C(NCc2ccc3c(c2)CCO3)CCN1Cc1ccccc1` (stereo not shown) | - | 1.235 | 6.452 |
| `CN1CCN(C[C@H]2CC[C@@H](Cc3ccc(CN4CCCC4)cc3)O2)CC1` | 6.673 | 10.27 | 19.18 |
| `[H][C@@]12CCN(C(C)=O)C[C@]1([H])CCN(Cc1ccc3c(c1)OCO3)C(=O)C2` | -11.47 | - | - |
| `O=C(c1cocn1)N1CCC2(CC1)CC(OCC1CC1)CO2` (stereo not shown) | -5.741 | 0 | 8 |
| `CS(=O)(=O)N1CCOCC12CCN(Cc1ccc(F)cc1)CC2` | - | -4.444 | 5.66 |
| `CC(C)Nc1ncnc2c1CCN(C(=O)Cc1ccccn1)CC2.O=C(O)C(F)(F)F` | -44.52 | - | - |
| `CS(=O)(=O)N1CCCC(Cc2cnc(Br)cn2)CC1` (stereo not shown) | -13.62 | 4.651 | 11.35 |
| `CN(Cc1cnn(C)c1)CC(O)c1ccc2c(c1)OCO2` (stereo not shown) | 9.383 | 2.762 | 2.41 |
| `Cc1nn(C)cc1Cn1c(=O)c(C)nc2ccccc21` | -12.39 | 2.424 | 15.58 |
| `Cc1ccsc1CNC1CCCc2c1cnn2C` (stereo not shown) | - | 2.521 | 1.653 |
| `CNc1nc(C)c(C(=O)N2C[C@H]3CC[C@@H]2CN(c2cnccn2)C3)s1` | - | 6.383 | 12.86 |
| `O=C(Nc1ccccn1)C1=NN(c2ccccc2)C(=O)CN1` | -12.81 | -2.256 | -10.11 |
| `O=C(O)C(F)(F)F.c1cnc(NC2COC3(CCN(Cc4cc[nH]n4)CC3)C2)nc1` (stereo not shown) | -43.28 | - | - |
| `O=C1CCC2(CCCN(C(=O)c3ncc[nH]3)C2)CN1CCc1c[nH]cn1` (stereo not shown) | -47.84 | 7.921 | 20.55 |
| `O=C(Cc1ccsc1)N1C[C@@H]2CN(Cc3ccoc3)CCO[C@@H]2C1` | - | 0.5525 | -43.61 |
| `CN(C)C(=O)c1cncnc1-c1ccc(CNC(=O)C2CCCO2)cc1` (stereo not shown) | -23.34 | 0 | 0 |
| `CCC(CC)NC(=O)c1cccnc1-n1cccn1` | -51.36 | 9.639 | 14 |
| `CC(C)c1cc(CN2CCNCC2)no1` | 46.2 | 0 | 16.49 |
| `CC(NCc1ccc(OCC(N)=O)cc1)c1ccc(Cl)cc1Cl` (stereo not shown) | - | 7.143 | 21.49 |
| `Cc1noc([C@H]2C[C@H]3OCC[C@H]3N(S(=O)(=O)C3CC3)C2)n1` | - | 0 | 13.33 |
| `Cc1c(CCC(=O)Nc2ccc(Cl)cn2)cnn1C` | -21.74 | 3.509 | 14.29 |
| `COCCC1COC2(CCN(C(=O)c3ccsc3)CC2)C1` (stereo not shown) | -198.2 | 2.941 | 16 |
| `Cc1cc(CNC(=O)NCCOc2ccc(F)c(F)c2)on1` | -38.02 | 2.956 | 23.29 |
| `Cn1cc(-c2csc(N3CCN(C(=O)OC(C)(C)C)CC3)n2)cn1` | 13.48 | 0.813 | 29.81 |
| `CCN(CC)C(=O)c1ccn(COc2ccc(F)cc2F)n1` | -24.15 | 1.739 | 8.621 |
| `Fc1ccc2c(c1)CCC2NCc1ccc(N2CCOCC2)cc1` (stereo not shown) | -59.4 | 9.278 | -5.714 |
| `Cc1cc(-c2cnc(NC3CC3)nc2-c2ccc(C)o2)on1` | 25.68 | 0.5464 | 8.029 |
| `C[C@@H]1C[C@H]2CN(C(=O)c3ccncn3)C[C@H]2O1` | - | 3.659 | -2.564 |
| `CC(=O)N1CC(=O)N(c2ccccc2)CC12CCN(Cc1ccoc1)C2` (stereo not shown) | - | 9.135 | 15.6 |
| `CN(C)C(=O)Cc1ccc(NC(=O)NC2CCCC2)cc1` | 25.79 | -0.8333 | 16.98 |
| `Cc1cc(C(=O)N2CCCC2Cn2nc(C)cc2C)on1` (stereo not shown) | -19.09 | -14.29 | 16.67 |
| `COCCN1C(=O)[C@H]2CC[C@@H]1CN(S(=O)(=O)c1ccc(OC)cc1)C2` | - | 2.679 | 14.16 |
| `CNc1cncc(C2CCCN2C(=O)CCn2ccnc2C(C)C)n1` (stereo not shown) | -7.322 | 2.682 | -1.439 |
| `[H][C@@]12CS(=O)(=O)C[C@]1([H])N(C(=O)c1cc(Cl)no1)CCN2C(=O)C(C)C` | -13.21 | - | - |
| `COCCCNC(=O)COc1ccccc1C(F)(F)F` | -17.38 | 2.89 | 12 |
| `O=C(c1cccc(F)c1)N1CCc2ncc(Cn3cccn3)n2CC1` | -7.778 | 4.762 | 2.778 |
| `CCc1nc(CN2CCN(CC(O)c3ccccc3)CC2)no1` (stereo not shown) | -6.694 | -1.69 | 7.826 |
| `Cc1ccc(OC2(C(=O)O)CCN(C(=O)c3ccsc3)CC2)cn1` | 9.454 | -1.02 | 11.11 |
| `O=C(O)c1c(NC2CCC2)ncc2c1CCN(C1CCOC1)C2` (stereo not shown) | - | 7.595 | 15.52 |
| `c1ccc(-c2ncc3c(n2)C2(CCN(c4ncccn4)C2)COC3)cc1` (stereo not shown) | -30.71 | 4.95 | 12.33 |
| `COc1ccccc1OC1(C(=O)O)CCN(c2ccccn2)CC1` | -32.8 | 1.961 | 8 |
| `CNC(=O)[C@@H]1CN(Cc2ccccc2)C[C@H]1C(=O)c1ccc(F)cc1` | -17.88 | 2.825 | 11.19 |
| `CCOC(=O)CN(C)Cc1cnc(C)s1` | -15.38 | 7.328 | -1.266 |
| `CCc1nc2n(n1)CCCC2Nc1nc(C(C)C)ns1` (stereo not shown) | -9.301 | 10.34 | 14.52 |
| `[H][C@]12CC[C@@]([H])(C1)N(Cc1ccccc1OCCCN1CCN(C)CC1)C2` | -10 | - | - |
| `N#Cc1ccc(N2CCCC3(CCN(c4cncnc4)C3=O)C2)nc1.O=C(O)C(F)(F)F` (stereo not shown) | -13.65 | - | - |
| `O=C1CC(N(C(=O)c2ccc(Cl)c(Cl)c2)C2CC2)C(=O)N1` (stereo not shown) | - | 3.429 | 1.695 |

6 of the entries, repeated:

SMILES	T. brucei	TcHisRS	LiHisRS
CC(C)c1nc2n(n1)CC(NCCc1cccs1)CC2 (stereo not shown)	-6.978	3.784	11.97
Cc1cc(CNC(=O)NCCOc2ccc(F)c(F)c2)on1	-38.02	2.956	23.29
CCN1C[C@H]2[C@@H](C1)N(c1ncc(F)cn1)CC[C@H]2OC	-	-3.226	15.79
O=C(O)C(F)(F)F.c1cnc(NC2COC3(CCN(Cc4cc[nH]n4)CC3)C2)nc1 (stereo not shown)	-43.28	-	-
CNc1nc(C)c(C(=O)N2C[C@H]3CC[C@@H]2CN(c2cnccn2)C3)s1	-	6.383	12.86
Cn1cc(-c2csc(N3CCN(C(=O)OC(C)(C)C)CC3)n2)cn1	13.48	0.813	29.81

Source: ChEMBL document CHEMBL3988442, “University of Dundee, Small-Polar-MMV Screening Library” (2021).